Results deposited as PubChem BioAssay AID1259275 (Sanger Institute, 2017)
Purpose: 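Kinome and custom colorectal gene library screened for lethal knock-downs and drug partners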 (primary screen). System: COLO320HSR human colorectal cancer cells. Reagents: siRNA pool against human genes. Treatment: anchor drug added one day after transfection: BYL719 at 1 µM, cetuximab at 5 µg/ml or trametinib at 10 nM; DMSO as vehicle arm. Detection: 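Replicate-mean viability versus non-targeting pool control, robust z-score without drug, and per-drug synergy scores for BYL719 at 1 µM, cetuximab at 5 µg/ml and trametinib at 10 nM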. Direction: robust z-score, siRNA alone: higher = more viable cells; strongly negative means essential; viability, knock-down alone (DMSO): higher = more viable cells; synergy score with BYL719 and synergy score with cetuximab and synergy score with trametinib: higher = stronger combined killing with drug. Hit rule: 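a gene is called essential when its robust z-score without drug falls below -3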. Calls: active = essential (siRNA alone); inactive = no change (siRNA alone).
The deposit covers 794 reagents; below is a random part of them. Of all reagents, 13 (1.6%) got an active call. 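Calls mark knock-downs lethal by themselves, not drug synergy; drugs went in a day after transfection, with DMSO as vehicle.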 No viability above 1 is reported: the scale is capped. Not given: the amount of reagent, the time to read-out.

target	robust z-score, siRNA alone	viability, knock-down alone (DMSO) (fraction of control)	synergy score with BYL719	synergy score with cetuximab	synergy score with trametinib	activity call
PRKAR2A	0.726	1	-0.0654	-0.0893	0.00917	inactive
CDK6	0.726	1	0.0789	-0.0893	-0.0259	inactive
OXSR1	0.154	0.948	-0.03	-0.0221	0.00021	inactive
PRKAB1	0.306	0.962	-0.0404	-0.00915	-0.0295	inactive
MARK3	0.726	1	-0.0891	-0.0893	-0.0259	inactive
RET	0.0169	0.936	-0.00632	-0.0562	-0.0883	inactive
MARK4	-0.345	0.903	-0.184	-0.0925	0.0208	inactive
MARK1	0.726	1	-0.2	-0.0893	-0.0259	inactive
PAK6	0.726	1	-0.239	-0.0893	-0.0259	inactive
IRAK1	0.0119	0.936	-0.065	-0.0741	-0.0887	inactive
FGFR2	0.726	1	-0.0186	-0.0893	-0.0259	inactive
TAB1	-1.21	0.826	-0.0773	-0.216	-0.0179	inactive
FN1	0.726	1	-0.0404	-0.0287	-0.0259	inactive
NR2F2	-3.11	0.654	-0.124	-0.29	-0.254	active
MYH10	0.27	0.959	-0.0993	-0.0261	0.064	inactive
PRKCD	0.726	1	0.0536	0.0644	0.0431	inactive
EIF2AK3	-0.479	0.891	-0.107	-0.134	-0.103	inactive
ULK2	-1.91	0.762	-0.158	-0.185	-0.106	inactive
CAMK1	0.639	0.992	-0.122	-0.06	0.0192	inactive
TTK	-1.03	0.841	-0.24	-0.137	-0.101	inactive
